Source: PubChem BioAssay AID504804 (Drosophila RNAi Screening Center, 2011)

Screen: 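dsRNAs that improve Kc cell survival under doxorubicin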 (primary screen)
System: Drosophila Kc cells
Reagent: long dsRNA against Drosophila genes, 0.5 µg dsRNA per well
Timing: 96 h (48 h knock-down, then 48 h drug)
Challenge: doxorubicin 5 µg/ml for 48 h, added 48 h after dsRNA
Detection: 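Viability measured as cellular ATP by luminescence after 48 h knock-down then 48 h doxorubicin at 5 µg/ml; unnormalised plate counts for each replicate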
Reading the numbers: raw ATP luminescence: higher = more viable cells, protection from doxorubicin
Rule for the call: 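Active when both duplicate wells lie at least 2 SD above the plate mean and protection is confirmed by rescreening and independent dsRNAs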
The screen tested about 19,000 reagents; shown is an unselected part of those with a known target gene and a result. Of all reagents, 47 (0.25%) are marked active. 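Signals are raw, not normalised; exact z-scores behind calls not deposited; actives needed confirmation, so some wells reaching 2 SD are inactive.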 Names joined by + are all predicted targets of the reagent.

gene knocked down | DRSC id | raw ATP luminescence, replicate 1 | raw ATP luminescence, replicate 2 | call
CG13566 | DRSC04203 | 42970 | 51750 | inactive
CG42634 + CG42635 | DRSC02450 | 44340 | 54113 | inactive
CG8701 | DRSC07237 | 71470 | 61157 | inactive
Srrm234 | DRSC07955 | 1.33e5 | 1.59e5 | inactive
Srrm234 | DRSC08606 | 64863 | 67517 | inactive
CG31274 + MESK4 | DRSC13202 | 1.97e5 | 2.09e5 | inactive
TwdlT | DRSC16677 | 58260 | 43770 | inactive
Or45a | DRSC07487 | 50213 | 72187 | inactive
CG12991 | DRSC19511 | 2.52e5 | 2.61e5 | inactive
CG31510 | DRSC14182 | 66010 | 62470 | inactive
Fie | DRSC08158 | 37997 | 38053 | inactive
CG14565 | DRSC11726 | 73890 | 72773 | inactive
Piezo | DRSC03092 | 1.14e5 | 61587 | inactive
CG10560 | DRSC14256 | 74000 | 64910 | inactive
CG13445 | DRSC09992 | 36197 | 27223 | inactive
CG32240 | DRSC08093 | 1.60e5 | 1.14e5 | inactive
Hat1 | DRSC12298 | 67570 | 73807 | inactive
Eig71Ec | DRSC11150 | 54743 | 42287 | inactive
Sr-CIV | DRSC00575 | 30820 | 46523 | inactive
Ndc1 | DRSC15895 | 40070 | 36437 | inactive
CG42374 + Mettl5 | DRSC11085 | 21820 | 19497 | inactive
luna | DRSC05253 | 67080 | 75417 | inactive
luna | DRSC06663 | 14057 | 17693 | inactive
luna | DRSC07336 | 46183 | 95730 | inactive
CG5521 | DRSC15828 | 57840 | 52530 | inactive
CG11970 | DRSC14157 | 53307 | 30057 | inactive
CG17982 | DRSC18143 | 35730 | 56150 | inactive
CG8065 | DRSC10959 | 75757 | 53403 | inactive
CG4763 | DRSC04009 | 1.20e5 | 97477 | inactive
CG4763 | DRSC04487 | 80410 | 76163 | inactive
Idh3a | DRSC19446 | 3.47e5 | 2.99e5 | inactive
CG8319 | DRSC16407 | 52130 | 55237 | inactive
cl | DRSC02118 | 1.18e5 | 81630 | inactive
Cul1 | DRSC07645 | 65990 | 64493 | inactive

Quoted from the listing (3 entries):
gene knocked down | DRSC id | raw ATP luminescence, replicate 1 | raw ATP luminescence, replicate 2 | call
Ndc1 | DRSC15895 | 40070 | 36437 | inactive
CG42374 + Mettl5 | DRSC11085 | 21820 | 19497 | inactive
luna | DRSC05253 | 67080 | 75417 | inactive
